Test results as given in the supplement of paper PMC4635364.
Counter-ions that a name gives are not always drawn. The list shows a part of the results. This data set is noisy: repeats of one test often differ as much as different tests do.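 ReNCell VM, a human fetal ventral-midbrain neural progenitor line, was differentiated without mitogens. Blinded raters scored images stained for doublecortin (early neurons) or tyrosine hydroxylase (dopaminergic neurons) against untreated wells (0 = no change). Scores were averaged across repeats and both raters, and compounds averaging 2 or more were selected as hits for retesting.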

These compounds were tested on ReNCell VM (assay: dopaminergic neuron differentiation score (TH+ cell fraction vs untreated, manual image score) (score (0 to 3)); higher = more TH+ dopaminergic neuron differentiation). Conditions: library: Prestwick; 2 uM; 4 weeks; BDNF 10 ng/ml + GDNF 10 ng/ml.

SMILES	dopaminergic neuron differentiation score
CNC(=O)c1c(I)c(C(=O)NCC(=O)Nc2c(I)c(C(=O)O)c(I)c(C(=O)NCCO)c2I)c(I)c(N(C)C(C)=O)c1I [Ioxaglic acid]	inactive: 0
CCCc1ncc(C[n+]2ccccc2C)c(N)n1 [Amprolium hydrochloride]	inactive: 1
CO[C@@H]1[C@@H](O[C@@H]2O[C@H](C)[C@@H](O[C@H]3C[C@@](C)(O)[C@@H](OC(=O)CC(C)C)[C@H](C)O3)[C@H](N(C)C)[C@H]2O)[C@@H](CC=O)C[C@@H](C)[C@@H](O)/C=C/C=C/C[C@@H](C)OC(=O)C[C@H]1OC(C)=O [Josamycin]	inactive: 0
Nc1nc(Cl)nc2c1ncn2[C@H]1C[C@H](O)[C@@H](CO)O1 [Cladribine]	inactive: 0
Nc1ccn([C@@H]2O[C@H](CO)[C@@H](O)C2(F)F)c(=O)n1 [Gemcitabine]	inactive: 0
Cc1c(N(C)C)c(=O)n(-c2ccccc2)n1C [Amidopyrine]	inactive: 0
CN1CCCCC1CCN1c2ccccc2Sc2ccc([S+](C)[O-])cc21 (configuration not stated) [Mesoridazine besylate]	inactive: 0
CN(C(=O)C(Cl)Cl)c1ccc(OC(=O)c2ccco2)cc1 [Diloxanide furoate]	inactive: 0

Same assay, conditions: library: Spectrum; 2 uM; 4 weeks; BDNF 10 ng/ml + GDNF 10 ng/ml

SMILES	dopaminergic neuron differentiation score
C=C1CCC(C2CC(=O)OC2=O)C(=O)CCC2C1CC2(C)C (configuration not stated)	inactive: 0
COc1ccc2oc(-c3ccccc3OC)cc(=O)c2c1	inactive: 0
COc1cc2oc3cc(OC)c(OC)c(CC=C(C)C)c3c(=O)c2c(OC)c1CC=C(C)C	inactive: 1
Clc1ccc(CSC(Cn2ccnc2)c2ccc(Cl)cc2Cl)cc1 (configuration not stated)	inactive: 0
CC1(C)C=Cc2c(c3c(c4c(=O)c(-c5ccc(O)c(O)c5)coc24)OC(C)(C)CC3)O1	inactive: 0
Oc1cc2c(cc1O)C1c3ccc(O)c(O)c3OCC1(O)C2 (configuration not stated)	inactive: 0
Nc1nc(=O)[nH]cc1F	inactive: 0
CCC(=O)O[C@]1(C(=O)CCl)[C@@H](C)C[C@H]2[C@@H]3CCC4=CC(=O)C=C[C@]4(C)[C@@]3(F)[C@@H](O)C[C@@]21C	inactive: 0
C[C@@H](O)[C@H]1C(=O)N2C(C(=O)O)=C(SCCNC=N)C[C@H]12	inactive: 0
COc1cccc(-c2cc(=O)c3ccc(OC)cc3o2)c1	inactive: 0
CCOc1ccc2ccccc2c1C(=O)N[C@@H]1C(=O)N2[C@@H]1SC(C)(C)[C@@H]2C(=O)O	inactive: 0
CCOC(=O)c1ccc(O)cc1	inactive: 0
C[Se]CC[C@H](N)C(=O)O	inactive: 0
O=C(O)c1cc(/N=N/c2ccc(S(=O)(=O)Nc3ccccn3)cc2)ccc1O	inactive: 1
CCN(CC)CCOc1ccc(C(=C(Cl)c2ccccc2)c2ccccc2)cc1	inactive: 0
C=C/C(C)=C\CC1C(C)(O)CCC2C(C)(C)CCCC21C (configuration not stated)	inactive: 0
CCCC(=O)Nc1ncnc2c1ncn2[C@@H]1O[C@@H]2COP(=O)(O)O[C@H]2[C@H]1OC(=O)CCC	inactive: 0
COc1cc([S+](C)[O-])ccc1-c1nc2cccnc2[nH]1 (configuration not stated)	inactive: 0

2 neighbouring compounds already listed, quoted:
SMILES	dopaminergic neuron differentiation score
COc1cc2oc3cc(OC)c(OC)c(CC=C(C)C)c3c(=O)c2c(OC)c1CC=C(C)C	inactive: 1
Clc1ccc(CSC(Cn2ccnc2)c2ccc(Cl)cc2Cl)cc1 (configuration not stated)	inactive: 0

Same assay, conditions: library: Tocriscreen; 2 uM; 4 weeks; BDNF 10 ng/ml + GDNF 10 ng/ml

SMILES	dopaminergic neuron differentiation score
Nc1[nH]nc2nnc(-c3c(-c4ccccc4)nn4ccccc34)cc12	inactive: 1
CC(C)[C@H](CO)Nc1nc(Nc2cc(N)cc(Cl)c2)c2ncn(C(C)C)c2n1 [Aminopurvalanol A]	inactive: 0
C[C@@H](CN1CCC(Cc2ccccc2)CC1)[C@@H](O)c1ccc(O)cc1 [Ro 25-6981 maleate]	inactive: 0
O=C(O)Cn1c(C(=O)Nc2nc(-c3ccccc3Cl)cs2)cc2ccccc21	inactive: 0
O=C(O)CC/C=C\C[C@H]1CO[C@@H](c2ccccc2Cl)O[C@H]1c1ccccc1O	inactive: 0
CC[N+](CC)(CC)CC(=O)Nc1c(C)cccc1C [QX 314 chloride]	inactive: 0
